Measurements: article PMC5640807
Results are given in words; binding and its absence hold for the method and conditions named. In cells and extracts the contact can be indirect. Some binding calls cover weakened binding; strength is not graded here. Tags and fused reporters may be left off the sequences shown.

Chains of the proteins cited; added tags and fusions are not shown. Residues count along the entry.
UniProt P63080, residues 26-473: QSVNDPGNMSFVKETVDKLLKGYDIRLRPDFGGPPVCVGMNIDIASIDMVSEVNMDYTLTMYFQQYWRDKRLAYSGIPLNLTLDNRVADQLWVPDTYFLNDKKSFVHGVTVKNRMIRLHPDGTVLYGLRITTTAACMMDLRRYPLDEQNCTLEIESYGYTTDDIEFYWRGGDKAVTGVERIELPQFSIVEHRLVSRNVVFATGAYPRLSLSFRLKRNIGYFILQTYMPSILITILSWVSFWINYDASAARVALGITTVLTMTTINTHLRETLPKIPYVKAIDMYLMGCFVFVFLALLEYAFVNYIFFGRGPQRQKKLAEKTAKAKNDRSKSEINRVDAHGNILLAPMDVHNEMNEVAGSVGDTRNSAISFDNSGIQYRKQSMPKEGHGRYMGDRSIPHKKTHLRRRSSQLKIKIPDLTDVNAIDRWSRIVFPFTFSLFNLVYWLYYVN
UniProt Q69ZK9, residues 15-836: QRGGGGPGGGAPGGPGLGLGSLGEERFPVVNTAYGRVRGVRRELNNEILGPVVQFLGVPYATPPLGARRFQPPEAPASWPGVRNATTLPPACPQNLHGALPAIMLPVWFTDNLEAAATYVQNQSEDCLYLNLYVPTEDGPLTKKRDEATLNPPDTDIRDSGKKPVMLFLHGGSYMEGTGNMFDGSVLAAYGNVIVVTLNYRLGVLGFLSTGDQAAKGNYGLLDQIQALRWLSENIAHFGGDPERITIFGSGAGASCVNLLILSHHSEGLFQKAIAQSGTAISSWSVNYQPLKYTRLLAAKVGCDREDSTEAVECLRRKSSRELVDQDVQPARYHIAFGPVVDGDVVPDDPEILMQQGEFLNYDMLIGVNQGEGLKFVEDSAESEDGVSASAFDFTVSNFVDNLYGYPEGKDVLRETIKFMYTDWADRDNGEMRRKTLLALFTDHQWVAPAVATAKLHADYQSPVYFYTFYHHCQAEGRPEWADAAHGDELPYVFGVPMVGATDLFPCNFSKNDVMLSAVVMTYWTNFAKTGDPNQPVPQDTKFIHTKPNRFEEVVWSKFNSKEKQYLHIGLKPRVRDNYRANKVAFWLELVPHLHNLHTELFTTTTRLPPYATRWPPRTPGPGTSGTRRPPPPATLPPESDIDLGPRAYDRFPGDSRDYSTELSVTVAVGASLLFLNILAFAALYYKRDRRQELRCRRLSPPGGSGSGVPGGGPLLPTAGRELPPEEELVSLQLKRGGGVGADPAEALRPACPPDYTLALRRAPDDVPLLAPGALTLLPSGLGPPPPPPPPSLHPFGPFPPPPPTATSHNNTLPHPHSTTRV

Columns and labels:
[1] = biological target: T1, super-ecliptic-pHluorin (SEP)-tagged GABAA receptor gamma2 subunit (UniProt P22723); experiment: co-IP; lysates of co-transfected COS-7 cells; mouse LHFPL4-tGFP co-immunoprecipitated with SEP-tagged GABAAR subunits; western blot
T1 sequence: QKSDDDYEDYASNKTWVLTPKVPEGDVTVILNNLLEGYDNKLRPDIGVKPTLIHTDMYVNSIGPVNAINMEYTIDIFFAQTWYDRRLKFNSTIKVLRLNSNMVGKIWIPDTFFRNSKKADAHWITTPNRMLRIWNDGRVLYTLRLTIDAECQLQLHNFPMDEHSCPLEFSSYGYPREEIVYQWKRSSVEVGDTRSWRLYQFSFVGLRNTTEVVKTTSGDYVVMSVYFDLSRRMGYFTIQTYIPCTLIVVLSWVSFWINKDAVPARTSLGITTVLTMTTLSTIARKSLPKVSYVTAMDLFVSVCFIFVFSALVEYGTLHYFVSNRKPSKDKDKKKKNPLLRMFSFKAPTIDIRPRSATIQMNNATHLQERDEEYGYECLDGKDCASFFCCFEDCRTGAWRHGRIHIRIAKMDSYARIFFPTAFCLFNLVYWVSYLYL

[2] = biological target: T2, super-ecliptic-pHluorin (SEP)-tagged GABAA receptor alpha2 subunit (UniProt P26048); experiment: as above
T2 sequence: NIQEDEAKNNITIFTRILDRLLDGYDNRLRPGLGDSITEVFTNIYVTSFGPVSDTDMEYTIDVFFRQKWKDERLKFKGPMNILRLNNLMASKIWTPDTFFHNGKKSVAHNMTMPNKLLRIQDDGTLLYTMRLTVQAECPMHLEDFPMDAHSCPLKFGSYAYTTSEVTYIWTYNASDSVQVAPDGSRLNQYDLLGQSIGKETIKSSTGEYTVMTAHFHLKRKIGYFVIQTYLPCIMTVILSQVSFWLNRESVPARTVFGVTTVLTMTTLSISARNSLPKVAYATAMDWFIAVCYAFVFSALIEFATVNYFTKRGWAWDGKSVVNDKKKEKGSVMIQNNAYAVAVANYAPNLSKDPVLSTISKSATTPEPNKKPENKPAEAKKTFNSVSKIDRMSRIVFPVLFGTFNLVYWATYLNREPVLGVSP

[3] = biological target: super-ecliptic-pHluorin (SEP)-tagged GABAA receptor beta3 subunit (UniProt P63080); experiment: as above
[4] = biological target: T3, LHFPL4 (Lipoma HMGIC Fusion Partner-Like 4), endogenous in mouse brain (mouse (endogenous in mouse brain)) (UniProt Q5U4E0); experiment: co-IP; WT and Lhfpl4-/- mouse brain lysates; immunoprecipitation with an anti-LHFPL4 antibody; western blot
T3 sequence: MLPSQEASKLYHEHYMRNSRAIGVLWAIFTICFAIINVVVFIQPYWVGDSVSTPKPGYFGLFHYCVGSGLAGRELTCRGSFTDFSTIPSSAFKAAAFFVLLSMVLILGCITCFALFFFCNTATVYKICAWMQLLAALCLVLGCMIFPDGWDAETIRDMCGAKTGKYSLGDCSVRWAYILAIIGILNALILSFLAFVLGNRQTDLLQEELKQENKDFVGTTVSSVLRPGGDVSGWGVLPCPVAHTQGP

[5] = biological target: neuroligin2, endogenous in mouse brain (mouse (endogenous in mouse brain)) (UniProt Q69ZK9); experiment: co-IP; WT and Lhfpl4-/- mouse brain lysates; immunoprecipitation with an anti-NL2 antibody; western blot

B1: Mouse turbo-GFP-tagged LHFPL4 (protein, UniProt Q5U4E0 1-247)
chain: MLPSQEASKLYHEHYMRNSRAIGVLWAIFTICFAIINVVVFIQPYWVGDSVSTPKPGYFGLFHYCVGSGLAGRELTCRGSFTDFSTIPSSAFKAAAFFVLLSMVLILGCITCFALFFFCNTATVYKICAWMQLLAALCLVLGCMIFPDGWDAETIRDMCGAKTGKYSLGDCSVRWAYILAIIGILNALILSFLAFVLGNRQTDLLQEELKQENKDFVGTTVSSVLRPGGDVSGWGVLPCPVAHTQGP
- binding [1]: binds
- binding [2]: binds
- binding [3]: binds

B2: gephyrin, endogenous in mouse brain (protein, UniProt Q8BUV3 1-769)
chain: MATEGMILTNHDHQIRVGVLTVSDSCFRNLAEDRSGINLKDLVQDPSLLGGTISAYKIVPDEIEEIKETLIDWCDEKELNLILTTGGTGFAPRDVTPEATKEVIEREAPGMALAMLMGSLNVTPLGMLSRPVCGIRGKTLIINLPGSKKGSQECFQFILPALPHAIDLLRDAIVKVKEVHDELEDLPSPPPPLSPPPTTSPHKQTEDKGVQCEEEEEEKKDSGVASTEDSSSSHITAAALAAKIPDSIISRGVQVLPRDTASLSTTPSESPRAQATSRLSTASCPTPKQIRRPDESKGVASRVGSLKARLPSCSSTYSVSEVQSRCSSKENILRASHSAVDITKVARRHRMSPFPLTSMDKAFITVLEMTPVLGTEIINYRDGMGRVLAQDVYAKDNLPPFPASVKDGYAVRAADGPGDRFIIGESQAGEQPTQTVMPGQVMRVTTGAPIPCGADAVVQVEDTELIRESDDGTEELEVRILVQARPGQDIRPIGHDIKRGECVLAKGTHMGPSEIGLLATVGVTEVEVNKFPVVAVMSTGNELLNPEDDLLPGKIRDSNRSTLLATIQEHGYPTINLGIVGDNPDDLLNALNEGISRADVIITSGGVSMGEKDYLKQVLDIDLHAQIHFGRVFMKPGLPTTFATLDIDGVRKIIFALPGNPVSAVVTCNLFVVPALRKMQGILDPRPTIIKARLSCDVKLDPRPEYHRCILTWHHQEPLPWAQSTGNQMSSRLMSMRSANGLLMLPPKTEQYVELHKGEVVDVMVIGRL
- binding [4]: binds

B3: LHFPL4 (Lipoma HMGIC Fusion Partner-Like 4), endogenous in mouse brain (protein, UniProt Q5U4E0 1-247)
chain: MLPSQEASKLYHEHYMRNSRAIGVLWAIFTICFAIINVVVFIQPYWVGDSVSTPKPGYFGLFHYCVGSGLAGRELTCRGSFTDFSTIPSSAFKAAAFFVLLSMVLILGCITCFALFFFCNTATVYKICAWMQLLAALCLVLGCMIFPDGWDAETIRDMCGAKTGKYSLGDCSVRWAYILAIIGILNALILSFLAFVLGNRQTDLLQEELKQENKDFVGTTVSSVLRPGGDVSGWGVLPCPVAHTQGP
- binding [5]: binds
